Reference: patent EP4014973B1, “INHALED LIQUID FOR THE TREATMENT OF RESPIRATORY INFECTIONS IN HUMANS CAUSED BY PATHOGENS RESISTANT TO ANTIBIOTICS” (Conick Biotech LLC, priority 2020, dated 2022)
Where two headings read alike, the source gives them in different places.

How the values were obtained:
[1] = system: rats; conditions: inhalatory application
[2] = system: Candida strain, which requires histidine; conditions: Ames test
[3] = system: mice
[4] = system: Histoplasma capsulatum; assay type: cell-based
[5] = system: rats
[6] = system: mice; conditions: inhalatory application

With C=CCc1ccc(O)c(OC)c1.CCN(CC)CC(=O)Nc1c(C)cccc1C [Novel Compound, N-[N'-(carboxymethylenyl-2,6-dimethyl-aniline)-N,N-diethylammonium]-[2'-methoxy-4'-(2'-propenyl)]-phenolate.] the toxicity conclusion ([1]; applied doses) was “low toxic”, the lethality ([1]; doses up to 2,500 µL / kg) was “No rat has ended lethally” and the LD50 ([1]; nose-only, 6 hours exposure) was “over 2,500 µL / kg”. The mutagenic test results ([2]; Candida strain requiring histidine, rat liver extract, 1ml of the novel compound added to 20 ml of liquid) was “negative”, the “mutagenic and/or cancerogenic effects (conclusion)” value ([2]; preliminary results) was “no mutagenic and/or cancerogenic effects” and the toxicity conclusion ([3]; orally (p.o.), applied doses) was “low toxic”. The “oral LD50” value ([3]; p.o.) was “over 2,000 µL / kg”, the lethality ([3]; p.o., doses up to 2,000 µL / kg) was “No mouse has ended lethally” and the “R (evaluation of the results by zone diameter)” value [4] was “ES (key: 0mm - 4mm: resistant: R; 5 - 9 mm: moderately sensitive: MS; 10 - 15 mm: sensitive: S; 16 - 20 mm: very sensitive: VS; 21 mm and more: extremely sensitive: ES)”. The zone diameter [4] was 34 mm, the toxicity conclusion ([5]; orally (p.o.), applied doses) was “low toxic” and the “oral LD50” value ([5]; p.o.) was “over 2,250 µL / kg”. The lethality ([5]; p.o., doses up to 2,250 µL / kg) was “No rats have ended lethally”, the toxicity conclusion ([6]; applied doses) was “low toxic” and the lethality ([6]; doses up to 2,250 µL / kg) was “No mouse has ended lethally”. For the same compound, the LD50 ([6]; nose-only, 4 hours exposure) was “over 2,250 µL / kg”.
